Source: PubChem BioAssay AID493014 (National Center for Advancing Translational Sciences (NCATS), 2011)
This is one part of the list. Shown are side measurements of this screen, not its main read-out; they come without a call. Most of these compounds were active or inconclusive in the main read-out, so they are no random draw. The note in brackets gives the kind of curve behind each potency; many fits are weak.

Assay: qHTS Assay to Find Inhibitors of Chronic Active B-Cell Receptor Signaling
Conditions: ABC-DLBCL IkBa-CBG/CBR reporter, luminescence ratio (green luciferase fused to IkBa over red control in TMD8 lymphoma cells), 4 h
Procedure, shortened: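 Concentration-response series (up to 46 uM) were applied to TMD8 dual-reporter cells for 4 h at 37C with doxycycline. Green/red ratio, after filter-overlap correction, defined %Activity; red signal alone was normalised to basal cells and zero luminescence.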

[1] = measured here: CBR red luminescence, cell number
[2] = measured here: IkBa-CBG green luminescence

SMILES	AC50 [1]	AC50 [2]
Cc1ccc(-n2ncc3c(NCCCn4ccnc4)ncnc32)cc1C	35.5 µM [falling, single point]	
Cc1cc(N(CCO)CCO)ccc1N=Nc1cc(F)ccc1F	10 µM [rising, partial curve, poor fit]	
CCCCCCCc1ccc(-c2ccc(O)cc2)nc1	17.8 µM [rising, single point]	
CNC(=S)N1CCN(c2ccc([N+](=O)[O-])cc2)CC1	10 µM [rising, partial curve, poor fit]	
Cc1ccc(Cl)cc1NC1=C/C(=N\S(=O)(=O)c2cccs2)c2ccccc2C1=O	4.11 µM [falling, full curve]	
Cc1cc2c(C)cc(=O)[nH]c2cc1NC(=O)CCl	3.16 µM [rising, single point]	
CCOC(=O)C1=C(CP(=O)(c2ccccc2)c2ccccc2)NC(=O)NC1c1ccc(Cl)cc1 (stereo unspecified)	9.2 µM [falling, partial curve]	
COc1ccccc1NC(=O)CSc1nc2sc3c(c2c(=O)n1-c1ccccc1)CCN(C)C3	5.62 µM [falling, full curve]	
COc1cccc(C(=O)Nc2nc3c(s2)CN(C)CC3)c1	3.16 µM [falling, partial curve, poor fit]	
COc1ccc(CNC(=O)C(=O)NCC(c2ccco2)S(=O)(=O)c2ccc(Cl)cc2)cc1 (stereo unspecified)	3.98 µM [rising, full curve, poor fit]	
O=C(O)C1CC=CCC1C(=O)N1CC=C(c2ccccc2)CC1 (stereo unspecified)	22.4 µM [falling, single point]	
Cc1occc1C(=O)Nc1cc(S(=O)(=O)N2CCOCC2)ccc1OC(C)C	20.6 µM [rising, partial curve]	20.6 µM [falling, partial curve, poor fit]
CSc1nc2c(cc1C#N)CCCCC2	32.6 µM [rising, partial curve, poor fit]	
O=C(Cc1n[nH]c(=O)[nH]c1=O)N/N=C/CCc1ccccc1	1.41 µM [falling, partial curve, poor fit]	
CSc1nncc(-c2ccc(F)c(F)c2)n1	1 µM [falling, partial curve, poor fit]	
O=C(CCSc1ccccc1)NCCSCc1ccccc1		20.6 µM [rising, partial curve, poor fit]
Cc1ccccc1N1CCN(C2=NC(=O)/C(=C\c3cccs3)S2)CC1	1.64 µM [falling, full curve]	20.6 µM [falling, partial curve, poor fit]
Cc1cccc(C)c1NC(=O)CN(C)C(=O)c1ccc(-c2cccc(C(F)(F)F)c2)o1	3.26 µM [rising, single point]	
CCOC(=O)N1CCC(NC(=O)c2ccc3c(c2)sc2nc(-c4cccc(OC)c4)cn23)CC1	2.91 µM [falling, full curve, poor fit]	2.59 µM [rising, full curve]
CCCn1c(=O)c(Br)cn(-c2ccccc2C)c1=O	6.31 µM [rising, partial curve, poor fit]	
Cc1ccc(-c2csc(NC(=O)c3ccc(S(=O)(=O)N4CCc5ccccc54)cc3)n2)cc1	20.6 µM [falling, single point]	

SMILES	AC50 [1]	AC50 [2]
CCc1ccc(-n2nnnc2SCC(=O)Nc2ccc(NC(C)=O)cc2)cc1	2.24 µM [rising, partial curve]	11.2 µM [falling, partial curve, poor fit]
CC1(C)Oc2ccc(NC(=O)c3ccco3)cc2O1	22.4 µM [rising, single point]	
CN(C)C=Nc1ncc2c3ccccc3n(CCN(C)C)c2c1C#N	17.8 µM [falling, single point]	
Cc1ccc2nc(Cl)c(/C=N/Nc3nc(C)cc(C)n3)c(=O)n2c1	13 µM [falling, partial curve, poor fit]	
Cc1ccc(NC(=O)c2ccco2)c(NC(=O)c2ccccc2C)c1	11.2 µM [rising, partial curve]	
Cc1ccc(/C=C/c2nc3ccccc3s2)s1	25.9 µM [falling, partial curve]	
COc1cc(C2Nc3ccc4ncccc4c3C3=C2C(=O)CCC3)cc(OC)c1O (stereo unspecified)		20.6 µM [falling, single point]
C/C(CC(=O)Nc1ccc2c(c1)OCCO2)=N\NC(=O)C(=O)Nc1ccccc1C	14.1 µM [falling, single point]	
COc1ccc(N=Nc2cc(C)ccc2O)cc1	3.55 µM [rising, full curve, poor fit]	
CC(C)(C)NC(=O)c1ccc(Sc2ccccc2)c([N+](=O)[O-])c1	8.2 µM [rising, partial curve]	
CC(C)(C)NC(=O)C(c1ccc(F)cc1)N(Cc1ccccc1Cl)C(=O)c1ccn[nH]1 (stereo unspecified)	14.1 µM [falling, partial curve]	
CC1(C)Cc2ccccc2C(CSc2ccccc2C(=O)O)=N1	11.2 µM [rising, partial curve, poor fit]	
NNC(=O)c1cccc(O)c1	8.2 µM [falling, partial curve]	
COc1ccccc1N(CC(=O)NC1CC2CCC1C2)S(=O)(=O)c1ccc(C)cc1 (stereo unspecified)	20 µM [falling, single point]	
CC1=Nc2cc(C(=O)O)ccc2Sc2c(C)ccc(C)c21	25.1 µM [falling, single point]	
C/C(CC(=O)N1CCN(C=O)CC1)=N\NC(=O)c1ccc(Cl)cc1	25.1 µM [falling, single point]	
C#CCOCCOCCOCCNc1nc(N2CCN(C(=O)CCCCCCCCCCNC(=O)[C@H]([C@@H](C)CC)n3cc(CCCCCN)nn3)CC2)nc(N2CCN(C(=O)CCCCCCCCCCNC(=O)[C@H]([C@@H](C)CC)n3cc(CCCCN=C(N)N)nn3)CC2)n1	29.1 µM [rising, single point]	
CCOC(=O)/C(C(C)=O)=C1/OC(=O)c2ccccc21	6.51 µM [falling, single point]	
CC(=O)NC(=S)Nc1ccc(-c2nc3ccc(C)cc3s2)cc1	0.501 µM [rising, full curve, poor fit]	
CCC(=NNC(=O)c1ccc2c(c1)nc(C)n2CC)c1cc(F)ccc1O	0.0517 µM [rising, full curve, poor fit]	
O=C(NCC1CC1)c1cccc2c1C(=O)c1ccc(N3CCCC3)cc1S2(=O)=O	0.58 µM [rising, partial curve, poor fit]	

SMILES	AC50 [1]	AC50 [2]
O=C(N/N=C/c1ccc(OC2CSC2)cc1)c1ccccc1	2.51 µM [falling, partial curve]	
CC(C)OC(=O)CSc1nnc(SCc2cccc3ccccc23)s1	18.4 µM [falling, partial curve, poor fit]	
Cc1ccc(-n2[nH]c(C)c(/C=N/c3ccccn3)c2=O)cc1	14.1 µM [falling, single point]	
O=C(CC(Cc1ccccc1)C(=O)O)Nc1ccc(Cl)c(Cl)c1 (stereo unspecified)	35.5 µM [rising, single point]	
O=C(Cc1c[nH]c2ccccc12)NCc1cccs1	25.9 µM [falling, single point]	
COc1ccc(C2C(C(N)=O)=C(C)Nc3nc(-c4ccccc4OC)nn32)cc1OC (stereo unspecified)	11.2 µM [falling, partial curve]	
COC(=O)c1ccccc1NC(=O)c1ccccc1N(C)S(C)(=O)=O	6.51 µM [rising, single point]	
COc1ccc(/C=C2/C(=O)N(c3nc4ccccc4s3)N=C2CSc2ccc(Cl)cc2)cc1	25.9 µM [rising, single point]	
COC(=O)c1c(-c2ccc(C)cc2)csc1NC(=O)Cc1ccc(OC)c(OC)c1	25.9 µM [falling, partial curve, poor fit]	
Cn1cccc/c1=N\c1cccc[n+]1C	35.5 µM [falling, single point]	
CN1CCN(C(=O)CCCN2C(=O)/C(=C/c3ccc(Cl)cc3)SC2=S)CC1	8.2 µM [falling, partial curve]	
CCN1CCc2c(OCc3ccccc3)cccc2C1=O	0.2 µM [falling, full curve, poor fit]	
Cc1ccc(/C=C(\C#N)C(=O)NC(C)C)o1	15.8 µM [rising, partial curve, poor fit]	
CCC(/C=C1\Sc2ccc(OC)cc2N1CC)=C\c1sc2ccc(OC)cc2[n+]1CCCS(=O)(=O)[O-]	0.501 µM [rising, full curve, poor fit]	11.2 µM [rising, partial curve, poor fit]
COc1ccc(/C=C2\SC(=O)N(CCC(=O)NC3CCS(=O)(=O)C3)C2=O)cc1 (stereo unspecified)	0.631 µM [falling, full curve, poor fit]	
O=C1[C@@H]2Cc3c([nH]c4ccccc34)C(c3cccc(Br)c3)N2C(=O)CN1C1CCN(Cc2ccccc2)CC1 (stereo partly specified)	2.82 µM [falling, full curve, poor fit]	
COc1ccc(N2Cc3cccc(C(=O)O)c3C2=O)cc1	1.84 µM [rising, partial curve, poor fit]	
CC(=O)c1cccc(NC(=O)C2CCN(C(=O)c3cccs3)CC2)c1	11.2 µM [rising, single point]	
Cc1ccc2nc(-c3cccc(Br)c3)cc(C(=O)NCC3CCCO3)c2c1 (stereo unspecified)	15.8 µM [rising, single point]	

Nothing new here: an excerpt of the list.
SMILES	AC50 [1]	AC50 [2]
CC1=Nc2cc(C(=O)O)ccc2Sc2c(C)ccc(C)c21	25.1 µM [falling, single point]	
C/C(CC(=O)N1CCN(C=O)CC1)=N\NC(=O)c1ccc(Cl)cc1	25.1 µM [falling, single point]	
